According to patent US20030187244A1:
Results are given in words; binding and its absence hold for the method and conditions named. Some entries that bind do so weakly or less than the wild type.

Chains of the proteins cited; added tags and fusions are not shown. Residues count along the entry.
UniProt P21730: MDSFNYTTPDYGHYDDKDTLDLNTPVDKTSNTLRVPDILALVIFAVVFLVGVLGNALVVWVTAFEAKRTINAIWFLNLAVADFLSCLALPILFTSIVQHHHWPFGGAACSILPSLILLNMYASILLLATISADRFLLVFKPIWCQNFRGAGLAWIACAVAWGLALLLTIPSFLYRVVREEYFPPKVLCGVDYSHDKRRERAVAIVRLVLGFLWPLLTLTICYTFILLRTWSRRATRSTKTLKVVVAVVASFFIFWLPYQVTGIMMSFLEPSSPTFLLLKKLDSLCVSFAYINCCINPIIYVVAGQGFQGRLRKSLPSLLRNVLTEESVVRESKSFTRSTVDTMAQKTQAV
UniProt P01031, residues 678-751: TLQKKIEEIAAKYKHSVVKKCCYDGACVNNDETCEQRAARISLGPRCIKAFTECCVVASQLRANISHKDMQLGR

Biological target: C5aR (UniProt P21730)
Assay: ligand binding to transfected cells expressing C5aR

## C5a (from UniProt P01031 678-751) (ligand)
  binding: binds
